No constants are given. Whether binding was seen depends on the method and setting. For part of these data: In cells and extracts the contact can be indirect. Some entries that bind do so weakly or less than the wild type. For part of these data: Tags and fused reporters may be left off the sequences shown.
Tests used:
[1] = molecular target: T1, KAT8, endogenous (human (endogenous in HCT116)) (UniProt Q9H7Z6); test: co-IP; semi-exogenous: one tagged partner transfected into HCT116 cells, the other endogenous, lysates
T1 sequence: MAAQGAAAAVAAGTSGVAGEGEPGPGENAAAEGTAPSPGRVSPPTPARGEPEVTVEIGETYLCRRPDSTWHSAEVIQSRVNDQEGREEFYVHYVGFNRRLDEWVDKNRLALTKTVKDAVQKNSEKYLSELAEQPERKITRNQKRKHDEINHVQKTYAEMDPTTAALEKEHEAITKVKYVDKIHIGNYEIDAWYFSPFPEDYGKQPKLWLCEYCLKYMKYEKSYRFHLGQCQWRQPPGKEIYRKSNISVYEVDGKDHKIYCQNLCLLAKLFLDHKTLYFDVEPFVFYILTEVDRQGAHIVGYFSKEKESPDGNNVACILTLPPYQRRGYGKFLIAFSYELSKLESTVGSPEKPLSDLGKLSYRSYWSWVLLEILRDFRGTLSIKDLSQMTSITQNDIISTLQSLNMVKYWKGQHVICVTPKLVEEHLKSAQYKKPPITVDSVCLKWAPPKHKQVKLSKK

By UniProt entry, the sequences of proteins in these tests, tags left out.
UniProt Q92830: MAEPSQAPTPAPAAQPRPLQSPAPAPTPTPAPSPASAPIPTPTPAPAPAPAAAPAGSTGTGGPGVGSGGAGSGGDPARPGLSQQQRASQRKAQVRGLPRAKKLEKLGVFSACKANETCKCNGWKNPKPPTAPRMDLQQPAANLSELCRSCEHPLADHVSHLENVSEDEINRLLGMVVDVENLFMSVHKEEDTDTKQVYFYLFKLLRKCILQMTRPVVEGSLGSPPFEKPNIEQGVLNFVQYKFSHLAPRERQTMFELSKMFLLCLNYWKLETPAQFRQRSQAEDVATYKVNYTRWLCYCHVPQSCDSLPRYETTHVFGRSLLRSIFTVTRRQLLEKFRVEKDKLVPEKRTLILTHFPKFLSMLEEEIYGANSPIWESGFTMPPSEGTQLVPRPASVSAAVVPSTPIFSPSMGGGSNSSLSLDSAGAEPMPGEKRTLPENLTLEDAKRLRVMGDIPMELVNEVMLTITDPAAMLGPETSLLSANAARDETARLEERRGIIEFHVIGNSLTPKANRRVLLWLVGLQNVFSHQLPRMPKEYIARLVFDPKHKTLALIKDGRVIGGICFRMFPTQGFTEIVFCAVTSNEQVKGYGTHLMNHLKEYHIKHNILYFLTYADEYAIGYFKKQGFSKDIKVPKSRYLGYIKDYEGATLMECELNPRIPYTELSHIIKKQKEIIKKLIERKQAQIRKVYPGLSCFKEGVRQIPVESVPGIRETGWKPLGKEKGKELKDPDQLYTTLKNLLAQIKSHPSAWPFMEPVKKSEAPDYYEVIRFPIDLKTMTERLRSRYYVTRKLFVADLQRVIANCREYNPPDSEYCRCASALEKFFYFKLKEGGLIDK
UniProt Q8N6T7: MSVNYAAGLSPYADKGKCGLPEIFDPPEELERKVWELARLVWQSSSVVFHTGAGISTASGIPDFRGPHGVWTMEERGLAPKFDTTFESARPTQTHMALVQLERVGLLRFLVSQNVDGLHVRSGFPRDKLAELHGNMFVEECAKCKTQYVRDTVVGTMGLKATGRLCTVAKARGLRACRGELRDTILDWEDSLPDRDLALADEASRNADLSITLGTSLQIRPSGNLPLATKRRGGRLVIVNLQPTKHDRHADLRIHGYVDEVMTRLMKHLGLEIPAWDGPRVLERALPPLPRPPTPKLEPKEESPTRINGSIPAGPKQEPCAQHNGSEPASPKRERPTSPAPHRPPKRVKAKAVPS

[2] = molecular target: T2, myc-KAT8 (lysine acetyltransferase 8), wild type (human) (UniProt Q9H7Z6); test: co-IP; exogenous: both partners tagged and co-transfected into HCT116 cells, lysates; with or without PA at 0.2 mM for 24 h
T2 sequence: T1 sequence

[3] = molecular target: T3, GST-KAT8 FL (human) (UniProt Q9H7Z6); test: pull-down; GST pull-down: His-tagged proteins incubated with GST fusion proteins in TEN buffers for 4 h at 4 °C, beads washed three times; Western blotting with anti-GST or anti-His and Coomassie staining; both purified
T3 sequence: T1 sequence

[4] = molecular target: T1, KAT8, endogenous (human (endogenous in HCT116)); test: co-IP; endogenous proteins of HCT116 lysates; also cells with GCN5 siRNA or non-specific RNA and SIRT6-KO cells
[5] = molecular target: T2, myc-KAT8 (lysine acetyltransferase 8), wild type (human); test: co-IP; semi-exogenous: one tagged partner transfected into HCT116 cells, the other endogenous, lysates

Substance | binding [1] | binding [2] | binding [4] | further results
Flag-GCN5 (general control non-repressed protein 5) (from UniProt Q92830 1-837) | binds | binds | – | –
His-GCN5 FL (from UniProt Q92830 1-837) | – | – | – | binding [3]: binds
GCN5, endogenous (from UniProt Q92830 1-837) | – | – | binds | –
SIRT6, endogenous (from UniProt Q8N6T7 1-355) | – | – | binds | binding [5]: binds

The next lines start with results.

binding [1] | binding [2] | binding [4] | Substance | further results
binds | binds | – | Flag-SIRT6 (from UniProt Q8N6T7 1-355) | –
– | binds | – | GFP-SIRT6 (from UniProt Q8N6T7 1-355) | –

From article PMC9970984
